Data from patent US20040009147A1.
Results are given in words; binding and its absence hold for the method and conditions named. Some results given as binding are weak or reduced against the parent protein; the word gives no strength. Sequences can lack the tags named with a protein.

Amino acid sequences for entries named in this document (tags omitted). A change or cut given only in a name is not applied to a line headed by its entry. Residues count along the entry.
UniProt O43557: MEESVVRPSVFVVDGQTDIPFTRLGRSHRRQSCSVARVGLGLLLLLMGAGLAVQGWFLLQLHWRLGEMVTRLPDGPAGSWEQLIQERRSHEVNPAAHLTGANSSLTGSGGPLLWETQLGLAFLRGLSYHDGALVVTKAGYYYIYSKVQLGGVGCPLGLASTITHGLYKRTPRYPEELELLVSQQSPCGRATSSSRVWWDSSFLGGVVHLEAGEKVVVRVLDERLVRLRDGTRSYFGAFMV
UniProt P48023, residues 103-281: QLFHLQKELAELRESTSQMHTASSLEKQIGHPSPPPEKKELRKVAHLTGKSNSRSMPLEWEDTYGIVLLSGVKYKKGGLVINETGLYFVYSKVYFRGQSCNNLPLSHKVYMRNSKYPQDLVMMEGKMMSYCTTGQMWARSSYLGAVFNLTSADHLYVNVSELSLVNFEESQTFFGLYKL

How the values were obtained:
[1] = biological target: Flag-tagged soluble AIM II protein (sAIM II), amino acids 74-240 of AIM II (human) (UniProt O43557); assay: immunoprecipitation with anti-Flag agarose, western blot with anti-poly(His)6
[2] = biological target: FasL-Flag (Flag-tagged soluble FasL) (UniProt P48023); assay: as above
[3] = biological target: Flag-tagged soluble AIM II protein (sAIM II), amino acids 74-240 of AIM II (human) (UniProt O43557); assay: immunoprecipitation in the presence of HVEM/TR2-Fc
[4] = biological target: Flag-tagged soluble AIM II protein (sAIM II), amino acids 74-240 of AIM II (human) (UniProt O43557); assay: summary sentence of Example 13
[5] = biological target: FasL-Flag (Flag-tagged soluble FasL) (UniProt P48023); assay: summary sentence of Example 13

binding [1]: binds
binding [2]: binds
binding [3]: binds
binding [4]: binds
binding [5]: binds
B1: TR6-(His), recombinant TR6 (DcR3) with hexa-histidine at the C-terminus (receptor)
chain: VAETPTYPWRDAETGERLVCAQCPPGTFVQRPCRRDSPTTCGPCPPRHYTQFWNYLERCRYCNVLCGEREEEARACHATHNRACRCRTGFFAHAGFCLEHASCPPGAGVIAPGTPSQNTQCQPCPPGTFSASSSSSEQCQPHRNCTALGLALNVPGSSSHDTLCTSCTGFPLSTRVPGAEECERAVIDFVAFQDISIKRLQRLLQALEAPEGWGPTPRAGRAALQLKLRRRLTELLGAQDGALLVRLLQALRVARMPGLERSVRERFLPVHHHHHHH
